Measured values from patent US20180280510A1 (CARNEGIE MELLON UNIVERSITY, published 2018).

B1: ZEGFR:1907-FAPdL5**-ZEGFR:1907 (designed binder)
chain: GPSKLAEAKYAKEMWAAWEEIRNLPNLTGWQMTAFIAKLVDDPSQSSELLSEAKKLNDSQAPKGSQAVVTQEPSVTVSPGGTVILTCGSGTGAVTSGHYANWFQQKPGQAPRALIFDTDKKYSWTPGRFSGSLLGAKAALTISDAQPEDEAEYYCSLSDVDGYLFGGGTQLTVLSGGGGSGGGGSGGGGSGGGGSQAVVTQEPSVTVSPGGTVILTCGSGTGAVTSGHYANWFQQKPGQAPRALIFDTDKKYSWTPGRFSGSLLGAKAALTISDAQPEDEAEYYCSLSDVDGYLFGGGTQLTVLSGTAEAKYAKEMWAAWEEIRNLPNLTGWQMTAFIAKLVDDPSQSSELLSEAKKLNDSQAPKLE
notes: Single FAP flanked by two ZEGFR:1907 affibodies; also called AFA; ZEGFR:1907 fusion probe AFA
B2: ZEGFR:1907-FAPdL5** (designed binder)
chain: GPSKLAEAKYAKEMWAAWEEIRNLPNLTGWQMTAFIAKLVDDPSQSSELLSEAKKLNDSQAPKASGSTSGTQAVVTQEPSVTVSPGGTVILTCGSGTGAVTSGHYANWFQQKPGQAPRALIFDTDKKYSWTPGRFSGSLLGAKAALTISDAQPEDEAEYYCSLSDVDGYLFGGGTQLTVLSGGGGSGGGGSGGGGSGGGGSQAVVTQEPSVTVSPGGTVILTCGSGTGAVTSGHYANWFQQKPGQAPRALIFDTDKKYSWTPGRFSGSLLGAKAALTISDAQPEDEAEYYCSLSDVDGYLFGGGTQLTVLSLE
notes: also called AF; ZEGFR:1907 fusion probe AF

Molecular target: T1, epidermal growth factor receptor (EGFR) on A431 cells (human, UniProt P00533 25-1210)
T1 construct: whole, on cells; Endogenous receptor on A431 tumor cells; also called HER1; EGFR1
Test: equilibrium binding fluorescence on A431 cells (cell surface Kd)

Binder	Kd
B1	37 nM
B2	122 nM
